Results are given in words; binding and its absence hold for the method and conditions named.
Target: T1, ZIP9 on L6 myogenic cells (rat (endogenous in L6)) (UniProt Q3KR82)
T1 sequence: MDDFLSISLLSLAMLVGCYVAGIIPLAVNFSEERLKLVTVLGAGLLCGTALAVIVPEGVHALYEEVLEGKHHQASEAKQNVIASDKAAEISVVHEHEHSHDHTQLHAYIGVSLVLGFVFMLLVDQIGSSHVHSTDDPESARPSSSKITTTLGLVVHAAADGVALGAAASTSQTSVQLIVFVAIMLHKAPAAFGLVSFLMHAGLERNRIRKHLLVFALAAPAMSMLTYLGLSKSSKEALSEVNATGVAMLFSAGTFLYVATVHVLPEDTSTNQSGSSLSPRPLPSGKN
Assay: cell-surface labelling with a fluorescent conjugate (fluorescence microscopy); L6 cells incubated with 5 µM BSA-FITC in Tris buffer pH 7.2 for 20 min at room temperature; fixed, imaged; only the binder purified

By UniProt entry, the sequences of proteins in these tests, tags left out. Residues count along the entry.
UniProt P02769, residues 25-607: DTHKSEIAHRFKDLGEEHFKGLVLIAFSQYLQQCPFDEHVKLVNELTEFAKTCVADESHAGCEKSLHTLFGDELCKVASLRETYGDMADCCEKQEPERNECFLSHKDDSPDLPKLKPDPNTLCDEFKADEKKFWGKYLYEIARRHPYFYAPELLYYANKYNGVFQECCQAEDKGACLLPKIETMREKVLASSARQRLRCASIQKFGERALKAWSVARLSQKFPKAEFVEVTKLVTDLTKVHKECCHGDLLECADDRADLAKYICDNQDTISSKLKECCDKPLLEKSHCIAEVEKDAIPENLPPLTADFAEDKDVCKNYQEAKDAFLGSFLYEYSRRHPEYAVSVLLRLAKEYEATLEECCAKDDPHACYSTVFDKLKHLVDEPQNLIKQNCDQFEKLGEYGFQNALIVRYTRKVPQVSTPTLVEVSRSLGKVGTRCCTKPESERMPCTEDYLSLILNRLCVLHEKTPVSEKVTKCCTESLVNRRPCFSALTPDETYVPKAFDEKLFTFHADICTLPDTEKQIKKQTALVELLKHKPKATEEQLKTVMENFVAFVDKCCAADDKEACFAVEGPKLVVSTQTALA

binding: no binding (tested: 5 µM)
Substance: BSA-FITC (lacking testosterone) (from UniProt P02769 25-607)

From PMC8772937
